# Laboratory results from article PMC4919469.
# By UniProt entry, the sequences of proteins in these tests, tags left out. Where a name states a change or a piece, a line headed by the entry shows the natural chain unless it says otherwise. Chains listed by the source or under a name are the forms on record and can include a tag or linker. Residues count along the entry.
# Cdc42Δ7Q61L (P60953, form named): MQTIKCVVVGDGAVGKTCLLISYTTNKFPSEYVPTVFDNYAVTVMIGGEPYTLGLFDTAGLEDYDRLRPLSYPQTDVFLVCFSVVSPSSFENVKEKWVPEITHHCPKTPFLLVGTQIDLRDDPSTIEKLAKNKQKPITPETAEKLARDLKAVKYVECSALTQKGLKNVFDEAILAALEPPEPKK
# UniProt Q6NX29, residues 197-255: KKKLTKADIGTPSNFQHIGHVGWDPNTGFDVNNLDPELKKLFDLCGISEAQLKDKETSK
# Results are given in words; binding and its absence hold for the method and conditions named. Some results given as binding are weak or reduced against the parent protein; the word gives no strength. For some of these results: Where a sequence is shown, tags or fusion partners need not be part of it.
# Tests used:
# [1] = biological target: T1, His-SNAP-TOCA1 (full-length X. tropicalis TOCA1) (Xenopus tropicalis) (UniProt Q6GUF4); experiment: scintillation proximity assay; direct binding; 30 nM GST-PAK, GST-ACK or His-tagged TOCA1 construct attached to a fluoromicrosphere via an anti-GST or anti-His antibody; Cdc42·[3H]GTP at increasing concentrations; apparent Kd from a direct binding isotherm; both purified
# T1 sequence: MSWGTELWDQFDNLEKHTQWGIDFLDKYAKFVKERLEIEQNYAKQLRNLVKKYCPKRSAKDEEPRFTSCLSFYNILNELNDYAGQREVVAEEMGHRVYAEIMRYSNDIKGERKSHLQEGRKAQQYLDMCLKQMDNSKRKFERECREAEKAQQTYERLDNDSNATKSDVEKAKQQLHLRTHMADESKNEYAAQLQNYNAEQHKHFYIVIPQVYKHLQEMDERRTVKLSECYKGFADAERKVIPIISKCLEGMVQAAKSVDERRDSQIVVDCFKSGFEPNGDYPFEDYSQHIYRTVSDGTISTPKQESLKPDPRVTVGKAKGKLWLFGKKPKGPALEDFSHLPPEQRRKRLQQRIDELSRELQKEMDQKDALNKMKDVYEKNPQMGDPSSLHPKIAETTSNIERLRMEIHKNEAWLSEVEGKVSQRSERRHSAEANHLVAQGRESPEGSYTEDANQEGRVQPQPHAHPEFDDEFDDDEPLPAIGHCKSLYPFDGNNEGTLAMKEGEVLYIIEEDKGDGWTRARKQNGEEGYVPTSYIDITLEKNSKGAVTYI
# [2] = biological target: T2, His-SNAP-TOCA1 F-BAR (residues 1–287) (Xenopus tropicalis) (UniProt Q6GUF4); experiment: as above
# T2 sequence: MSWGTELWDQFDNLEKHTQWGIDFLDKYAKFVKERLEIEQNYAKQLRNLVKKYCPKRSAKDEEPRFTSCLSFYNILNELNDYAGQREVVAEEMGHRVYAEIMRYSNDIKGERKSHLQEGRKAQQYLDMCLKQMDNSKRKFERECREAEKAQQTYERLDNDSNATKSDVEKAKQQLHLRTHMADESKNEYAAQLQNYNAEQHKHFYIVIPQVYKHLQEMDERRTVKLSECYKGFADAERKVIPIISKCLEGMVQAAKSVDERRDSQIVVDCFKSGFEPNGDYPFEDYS
# [3] = biological target: T3, His-SNAP-TOCA1 ΔSH3 (residues 1–480) (Xenopus tropicalis) (UniProt Q6GUF4); experiment: as above
# T3 sequence: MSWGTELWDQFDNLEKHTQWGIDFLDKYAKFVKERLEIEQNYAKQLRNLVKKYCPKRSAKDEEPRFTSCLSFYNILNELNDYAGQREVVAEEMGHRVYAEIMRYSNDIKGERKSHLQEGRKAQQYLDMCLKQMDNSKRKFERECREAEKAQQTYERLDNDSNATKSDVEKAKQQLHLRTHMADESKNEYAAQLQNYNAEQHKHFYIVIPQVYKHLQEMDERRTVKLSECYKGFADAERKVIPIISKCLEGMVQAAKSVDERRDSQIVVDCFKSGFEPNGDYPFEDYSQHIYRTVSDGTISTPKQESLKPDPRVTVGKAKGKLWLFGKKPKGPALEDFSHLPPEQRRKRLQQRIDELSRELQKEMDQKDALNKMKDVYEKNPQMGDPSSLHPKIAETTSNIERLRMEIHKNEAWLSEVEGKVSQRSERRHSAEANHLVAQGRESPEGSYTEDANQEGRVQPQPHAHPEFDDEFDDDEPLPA
# Cdc42Δ7Q61L (human) = Cdc42Δ7Q61L (human) (UniProt P60953); experiment: NMR titration; 15N and 13C HSQC at 25 °C in 50 mM sodium phosphate, pH 5.5, 25 mM NaCl, 5 mM MgCl2, 5 mM DTT, 10% D2O; 15N-HR1 with unlabelled Cdc42Δ7Q61L·GMPPNP, or 15N-Cdc42Δ7Q61L·GMPPNP with unlabelled HR1 and/or N-WASP GBD; both purified
binding [1],binding [2],binding [3],binding (Cdc42Δ7Q61L (human)),Substance
binds weakly,no binding,binds weakly,,Cdc42Δ7Q61L (from UniProt P60953 1-184) (domain or fragment)
,,,binds,N-WASP G protein-binding domain (GBD) (residues 197–255) (from UniProt Q6NX29 197-255) (domain or fragment)
